Measurements taken from patent US20170058314A1, “NOVEL METHODOLOGY FOR IDENTIFYING ANTI-PERSISTER ACTIVITY AND ANTIMICROBIAL SUSCEPTIBILITY FOR BORRELIA BURGDORFERI AND OTHER BACTERIA” (priority 2014, published 2017).
Some results were stated once for a whole list of compounds, not compound by compound.

Test system: B. burgdorferi (growing, strain B31)
Assay: MIC determination, standard microdilution method
Format: cell-based, Borrelia burgdorferi

| Structure (SMILES) | MIC [g/mL] |
| --- | --- |
| COc1cccc2c1C(=O)c1c(O)c3c(c(O)c1C2=O)C[C@@](O)(C(C)=O)C[C@@H]3OC1CC(N)C(O)C(C)O1.Cl (some centres unmarked) [NSC82151, Daunorubicin hydrochloride] | ≤ 0.36 |
| COc1cccc2c1C(=O)c1c(O)c3c(c(O)c1C2=O)C[C@@](O)(/C(C)=N\O)C[C@@H]3OC1CC(N)C(O)C(C)O1.Cl (some centres unmarked) [NSC143491, Daunomycin 3-oxime hydrochloride] | ≤ 0.36 |
